No constants are given. Whether binding was seen depends on the method and setting. Some binding calls cover weakened binding; strength is not graded here.
T1: human CD19 (human, UniProt P15391 20-556)
T1 sequence (looked up): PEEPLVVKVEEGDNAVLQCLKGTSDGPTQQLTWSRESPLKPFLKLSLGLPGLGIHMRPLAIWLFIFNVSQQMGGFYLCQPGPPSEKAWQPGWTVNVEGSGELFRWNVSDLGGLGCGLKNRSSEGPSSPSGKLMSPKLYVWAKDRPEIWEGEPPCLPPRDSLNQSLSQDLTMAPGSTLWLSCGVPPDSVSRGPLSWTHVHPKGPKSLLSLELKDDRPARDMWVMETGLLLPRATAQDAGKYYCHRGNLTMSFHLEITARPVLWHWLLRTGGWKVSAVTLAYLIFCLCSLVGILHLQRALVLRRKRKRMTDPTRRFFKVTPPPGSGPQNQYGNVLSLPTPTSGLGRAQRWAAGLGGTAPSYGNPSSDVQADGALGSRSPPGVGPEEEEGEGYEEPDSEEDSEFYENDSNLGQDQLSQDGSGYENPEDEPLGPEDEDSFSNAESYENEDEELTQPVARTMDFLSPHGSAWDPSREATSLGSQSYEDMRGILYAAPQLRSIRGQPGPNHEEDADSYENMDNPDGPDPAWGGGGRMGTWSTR


What was measured:
[1] = molecular target: T1, human CD19; assay: flow cytometry on Ramos cells
Method: The Ramos cells were plated in 96-well U-bottom plates (BD) at a density of 1×10⁵ cells/well. The purified antibody were serially diluted in the staining buffer (1×PBS/1% BSA) and incubated with cells for 1 hr at 4° C. The cells were then washed twice with staining buffer (BSA/1×PBS). […] The cells were then washed twice and re-suspended in 100 μL staining buffer. The fluorescence intensity was measured by flow cytometry (BD Canto II) and analyzed by FlowJo.
Binding activity of the selected subclones were tested on Ramos cell by flow cytometry (FIG. 4).

[2] = molecular target: T1, human CD19; assay: FACS on Ramos cells (human CD19)
[3] = molecular target: T1, human CD19; assay: FACS of hybridoma subclones on CD19 cell line
[4] = molecular target: T1, human CD19; assay: flow cytometry on CD19 transfected CHO-K1 cells
[5] = molecular target: cynomolgus monkey CD19 (cynomolgus monkey); assay: flow cytometry on cynomolgus CD19 transfected CHO-K1 cells
[6] = molecular target: cynomolgus monkey CD19 (cynomolgus monkey); assay: FACS on cynomolgus monkey CD19 transfected CHO-K1 cells (WBP701.CHO-K1.cynoPro1)

| binding [1] | binding [2] | binding [3] | binding [4] | binding [5] | binding [6] | Binder |
| --- | --- | --- | --- | --- | --- | --- |
| binds | binds | binds | binds | binds | binds | WBP7011_4.202.9 (antibody, mouse IgG2a, V domains shown, also called W7011-4.202.9) VH: EIQLQQSGPELVKPGASVKVSCKASGYAFTSYNMYWVKQSHGKSLEWIGYIDPYNGDTTYNQKFKGKATLTVDKSSSTAYMHLNSLTSEDSAVYYCLTTAYAMDYWGQGTSVTVSS VL: QIVLTQSPAIMSASLGEEITLTCSASSTVNYMHWYQQKSGTSPKLLIYSTSNLASGVPSRFSGSGSGTFYSLTIRSVEAEDAADYYCHQWSSYPYTFGGGTKLEIK |
| binds | binds | binds | binds | binds | binds | WBP7011_4.225.7 (antibody, mouse IgG2a, V domains shown, also called W7011-4.225.7) VH: EIQLQQSGPELVKPGASVKVSCKASGYAFTSYNMYWVKQSHGKSLEWIGYIDPYNGDTTYNQKFKGKATLTVDKSSSTAYMHLNSLTSEDSAVYYCLTTAYAMDYWGQGTSVTVSS VL: QIVLTQSPAIMSASLGEEITLTCSASSTVNYMHWYQQKSGTSPKLLIYSTSNLASGVPSRFSGSGSGTFYSLTIRSVEAEDAADYYCHQWSSYPYTFGGGTKLEIK |
| – | – | – | – | binds | binds | WBP7011_4.155.8 (antibody, V domains shown) VH: EIQLQQSGPELVKPGASVKVSCKASGYAFTSYNMYWVKQSHGKSLEWIGYIDPYNGDTTYNQKFKGKATLTVDKSSSTAYMHLNSLTSEDSAVYYCLTTAYAMDYWGQGTSVTVSS VL: QIVLTQSPAIMSASLGEEITLTCSASSTVNYMHWYQQKSGTSPKLLIYSTSNLASGVPSRFSGSGSGTFYSLTIRSVEAEDAADYYCHQWSSYPYTFGGGTKLEIK |
| – | – | – | – | binds | binds | WBP7011_4.231.5 (antibody, V domains shown, also called W7011-4.231.5) VH: EVQLQQSGPELVKPGASVKMSCKASGYTFTSYVMHWVKQKPGQGLEWIGYINPYNDGTQYNEKFKGKATLTSDKSSSTAYMELSSLTSEDSAVYYCARGPYYYSPSPFDYWGQGTTLTVSS VL: DAVMTQTPLSLPVSLGDQASISCRSSQSLENSNGNTYLNWYLQKPGQSPQLLIYRVSNRFSGVLDRFSGSGSGTDFTLKISRVEAEDLGVYFCLQVTHVPYTFGGGTKLEIK |
| – | – | – | – | binds | binds | WBP7011_4.194.10 (antibody, V domains shown, also called W7011-4.194.10) VH: EVQLQQSGPELVKPGASVKMSCKASGYTFTSYVMHWVKQKPGQGLEWIGYINPYNDGTKYNEKFKGKATLTSDKSSSTAYMELSSLTSEDSAVYYCARGPYYYGSSPFDYWGQGTTLTVSS VL: DAVMTQTPLSLPVSLGDQASISCRSSQTLENSNGNTYLNWYLQKPGQSPQLLIYRVSNRFSGVLDRFSGSGSGTDFTLKISRVETEDLGVYFCLQVTHVPYTFGGGTKLEIK |

Further lines, the binder ahead of its results:

| Binder | binding [1] | binding [2] | binding [3] | binding [4] | binding [5] | binding [6] |
| --- | --- | --- | --- | --- | --- | --- |
| WBP7011-4.100.1 (antibody, V domains shown, also called W7011-4.100.1) VH: EVQLQQSGPELVKPGASVKMSCKASGYTFTSYVIHWVKQKPGQGLEWIGYINPYNDGAEYTEKFKGKATLTSDKSSSTAYMELSSLTSEDSTVYYCARGPYYYGGSPFDYWGQGTTLTVSS VL: DAVMTQTPLSLPVSLGDQASISCRSSQSLENSNGNTYLNWYLQKPGQSPQLLIYRVSNRFSGVLDRFSGSGSGTDFTLKISRVEAEDLGVYFCLQVTHVPYTFGGGTKLEIK | – | – | – | – | binds | binds |
| WBP7011-4.106.3 (antibody, V domains shown, also called W7011-4.106.3) VH: EVQLQQSGPELVKPGASVKMSCKASGYTFSSYVIHWVKQKPGQGLEWIGYINPYNDGAEYAEKFKGKATLTSDKSSSSAYMELGSLTSEDSAVYYCARGPYYYGGSPFDYWGQGTTLTVSS VL: DAVMTQTPLSLPVSLGDQASISCRSSQSLENSNGNTYLNWYLQKPGQSPQLLIYRVSNRFSGVLDRFSGSGSGTDFTLKISRVEAEDLGVYFCLQVTHVPYTFGGGTKLEIK | – | – | – | – | binds | binds |
| WBP7011_4.56.1 (antibody, V domains shown, also called W7011-4.56.1) VH: EVQLQQSGPELVKPGASVKMSCKASGYTFTNYVIHWVKQKPGQGLEWIGYINPYNDGTEYNEKFKGKATLTSDTSSSTAYMALSSLTSEDSAVYYCTRGPYYYGGSPFDYWGQGTTLTVSS VL: DAVMTQTPLSLPVSLGDQASISCRSSQSLENSNGNTYLNWYLQKPGQSPQLLIYRVSNRFSGVLDRFSGSGSGTDFTLKISRVEAEDLGVYFCLQVTHVPYTFGGGTKLEIK | – | – | – | – | binds | binds |
| WBP7011-4.15.10 (antibody, V domains shown, also called W7011-4.15.10) VH: EVQLQQSGPELVKPGASVKMSCKASGYTFTSYVMHWMKQKPGQGLEWIGYINPYNDGTEYHEKFKGKATLTSDKSSSTAYMELSSLTSEDSAVFYCARGPYYYGGSPFDFWGQGTTLTVSS VL: DAVMTQTPLSLPVSLGDQASISCRSSQSLENSNGNTYLNWYLQKPGQSPQLLIYRVSNRFSGVLDRFSGSGSGTDFTLKISRVEAEDLGVYFCLQVTHVPYTFGGGTKLEIK | – | – | – | – | binds | binds |
| WBP7011-4.34.11 (antibody, V domains shown) VH: EVQLQQSGPELVKPGASVKMSCKASGYTFTNYVIHWVKQKPGQGLEWIGYFNPYNDGTEYNEKFKAKATLTSDKSSSTAYMELSSLTSEDSAVYYCAKGPYYYGSSPFDYWGQGTTLTVSS VL: DAVMTQTPLSLPVSLGDQASISCRSSQSLENSNGNTYLNWYLQKPGQSPQLLIYRVSNRFSGVLDRFSGSGSGTDFTLKISRVEAEDLGVYFCLQVTHVPYTFGGGTKLEIK | – | – | – | – | binds | binds |
| WBP7011_4.108.3 (antibody, V domains shown, also called W7011-4.108.3) VH: EVQLQQSGPELVKPGASVEMSCKASGYTFTSYVIHWLKQKPGQGLEWIGYINPYNDGAEYNEKFKGKATLTSDKSSSTAYMDLNSLTSEDSAVYYCARGPYYYGSSPFDYWGQGTTLTVSS VL: DAVMTQTPLSLPVSLGDQASISCRSSQSLENSNGNTYLNWYLQKPGQSPQLLIYRVSNRFSGVLDRFSGSGSGTDFTLKISRVEAEDLGVYFCLQVTHVPYTFGGGTKLEIK | – | – | – | – | binds | binds |
| WBP7011-4.87.6 (antibody, V domains shown) VH: QVQLQQSGAELVRPGSSVKISCKASGYAFSTYWMNWVKQRPGQGLEWIGQIYPGDDDTKYNGKFKGKASLTADKSSSTAYMQLISLTSEDSAVYFCARRYFRYDYWYSDVWGAGTTVTVTS VL: DIQMTQTTSSLSASLGDRVTISCRASQDISNYLNWYQQKPDGTVKLLIYYTSRLHSGVPARFSGSGSGTDYSLTISNLEQEDIATYFCHQGNTLPLTFGAGTKLELK | – | – | – | – | binds | binds |

From patent publication US20200289563A1 (WUXI BIOLOGICS IRELAND, published 2020)
